The text below walks through data of publication PMC10855754.

The experiment concerns the target Nqo15, subunit of respiratory complex I of Thermus thermophilus (Thermus thermophilus) (UniProt Q5SKZ7). Description: SEC-MALS; Superose-12 column with miniDawn MALLS; protein 260 uM; 20 mM Tris-HCl, 50 mM or 200 mM NaCl, pH 7.0; 25 °C; flow 0.4 mL/min; single peak of 16.2 ± 0.3 kDa (expected 14.6 kDa), same mass at both salt concentrations; both purified.

No constants are given. Whether binding was seen depends on the method and setting.

B1: Nqo15, subunit of respiratory complex I of Thermus thermophilus (protein, UniProt Q5SKZ7 1-129)
chain: MSASSERELYEAWVELLSWMREYAQAKGVRFEKEADFPDFIYRMERPYDLPTTIMTASLSDGLGEPFLLADVSPRHAKLKRIGLRLPRAHIHLHAHYEPGKGLVTGKIPLTKERFFALADRAREALAFA
Consider B1, for which the binding result is on record as “no binding (tested: 260 µM)”.
